Earlier results as cited in patent publication CN103330941A, “一种紫杉醇注射剂的药物组合物” (Individual, priority 2013, dated 2013).
In brackets after ≈: the same amount, converted by molar mass.

Conditions: cited from earlier work

For `CC(=O)O[C@H]1C(=O)[C@@]2(C)[C@H]([C@H](OC(=O)c3ccccc3)[C@]3(O)C[C@H](OC(=O)[C@H](O)[C@@H](NC(=O)c4ccccc4)c4ccccc4)C(C)=C1C3(C)C)[C@]1(OC(C)=O)CO[C@@H]1C[C@@H]2O` [紫杉醇, 5β,20-环氧-1,2α,4,7β,10β,13α-六羟基紫杉烷-11-烯-9-酮-4,10-二乙酸酯-2-苯甲酸酯-13[(2’R,3’S)-N-苯甲酰-3-苯基异丝氨酸酯]], the solubility in water is listed as 6 µg/mL (≈ 7.03 µM).
